From patent publication US7125546B2, “Polymeric micelle containing cisplatin enclosed therein and use thereof” (Toudai TLO, Ltd., priority 2000, dated 2006)
Some results were stated once for a whole list of compounds, not compound by compound.

Experiment: Blood plasma platinum concentration and accumulation of platinum in tumor and principal organs after caudate vein administration to tumor-bearing mice
Details: 0–24 hours, tissue platinum concentration-time curve; listed as Free CDDP

cis-Diaminedichloroplatinum (II) [CDDP]
Liver AUC/tumor AUC: ≥ 1
